{"source": "PubChem BioAssay AID1259254 (NCATS, 2017)", "aim": "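Gene knock-downs that lead to re-replication, shown by excess G2 DNA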 (primary screen)", "cell system": "human HCT116 colorectal cancer cells", "reagents": "single siRNA against human genes", "duration": "3 days", "measured": "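Nuclei stained with Hoechst and imaged; cell-cycle phase assigned by DNA content; G2 share scaled per plate, non-targeting siRNA 0%, GMNN siRNA 100%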", "reading the numbers": "G2 robust z-score: higher = more G2 cells, more excess DNA replication", "active means": "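Active siRNAs have a G2 robust z of 5 or more median absolute deviations over the median, which in these data means about 38% or higher of GMNN control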", "note": "The whole screen tested about 59,000 reagents; shown is a part drawn at random. About 1,550 of them (2.6%) were called active. 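G2 share is only a proxy for re-replication; each gene was hit by three separate siRNAs, and active genes were retested.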 The numbers tell different reagents against one gene apart. Further read-outs or replicates are left out here. Reagent sequences are not shown. Not stated in the record: the amount of reagent."}
{"gene": "BCL10", "siRNA no.": 1, "G2 robust z-score": 0.186, "activity call": "inactive"}
{"gene": "BCL10", "siRNA no.": 2, "G2 robust z-score": 0.298, "activity call": "inactive"}
{"gene": "BCL10", "siRNA no.": 3, "G2 robust z-score": 1.57, "activity call": "inactive"}
{"gene": "KXD1", "siRNA no.": 1, "G2 robust z-score": 0.611, "activity call": "inactive"}
{"gene": "KXD1", "siRNA no.": 2, "G2 robust z-score": 0.877, "activity call": "inactive"}
{"gene": "KXD1", "siRNA no.": 3, "G2 robust z-score": -0.885, "activity call": "inactive"}
{"gene": "SGCB", "siRNA no.": 1, "G2 robust z-score": -0.333, "activity call": "inactive"}
{"gene": "SGCB", "siRNA no.": 2, "G2 robust z-score": -0.784, "activity call": "inactive"}
{"gene": "SGCB", "siRNA no.": 3, "G2 robust z-score": 0.425, "activity call": "inactive"}
{"gene": "FAM120A", "siRNA no.": 1, "G2 robust z-score": -0.996, "activity call": "inactive"}
{"gene": "FAM120A", "siRNA no.": 2, "G2 robust z-score": -0.445, "activity call": "inactive"}
{"gene": "FAM120A", "siRNA no.": 3, "G2 robust z-score": -0.696, "activity call": "inactive"}
{"gene": "XPO6", "siRNA no.": 1, "G2 robust z-score": -1, "activity call": "inactive"}
{"gene": "XPO6", "siRNA no.": 2, "G2 robust z-score": -0.522, "activity call": "inactive"}
{"gene": "XPO6", "siRNA no.": 3, "G2 robust z-score": 0.0158, "activity call": "inactive"}
{"gene": "TKFC", "siRNA no.": 1, "G2 robust z-score": -0.827, "activity call": "inactive"}
{"gene": "TKFC", "siRNA no.": 2, "G2 robust z-score": 0.208, "activity call": "inactive"}
{"gene": "TKFC", "siRNA no.": 3, "G2 robust z-score": 0.295, "activity call": "inactive"}
{"gene": "PSMB3", "siRNA no.": 1, "G2 robust z-score": 8.54, "activity call": "active"}
{"gene": "PSMB3", "siRNA no.": 2, "G2 robust z-score": 1.33, "activity call": "inactive"}
{"gene": "PSMB3", "siRNA no.": 3, "G2 robust z-score": 0.303, "activity call": "inactive"}
{"gene": "FAM114A1", "siRNA no.": 1, "G2 robust z-score": -0.287, "activity call": "inactive"}
{"gene": "FAM114A1", "siRNA no.": 2, "G2 robust z-score": 0.669, "activity call": "inactive"}
{"gene": "FAM114A1", "siRNA no.": 3, "G2 robust z-score": -0.287, "activity call": "inactive"}
